# Several values for one entry are separate records, joined by “and”; a condition that tells them apart may be missing. Identical values can stand only once. Screen size: about 320,000 compounds; about 22,000 (6.9%) were called active. This list was built around the results that the source calls inconclusive (neither active nor inactive); the mix of calls is not that of the screen. Calls come from the whole dose curve; as a rule, active = well fitted inhibition curve with a large enough effect; inconclusive = small, poorly fitted or top-dose-only effect, or another doubt; inactive = no such curve, though single readings can be large or run the other way. Where the call is inconclusive, the potency comes from a doubtful curve fit.
# Test: Primary qHTS for delayed death inhibitors of the malarial parasite plastid, 96 hour incubation
# Details: P. falciparum luciferase reporter growth; series mostly up to 28.7 µM
# Outline: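 Readout is luminescence from an integrated firefly luciferase in P. falciparum. Red cells, 2% hematocrit and 0.05% parasitemia final, were cultured with compound through two parasite generations (96 hours) at 37 C, 5% CO2.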
# Potency is the fitted concentration of half-maximal effect.
row,SMILES,Potency
1,Cc1nnsc1C(=O)Nc1ccc(Cl)cc1Cl,inactive
2,N#C/C(=C\c1ccc(O)c([N+](=O)[O-])c1)c1nc2ccccc2s1,"inconclusive: 11.7 µM [inhibitor, partial curve, poor fit]"
3,O=C(NCc1ccccc1OC(F)(F)F)C1CCC(=O)N(Cc2cccc(F)c2)C1 (configuration not stated),"inconclusive: 13.1 µM [inhibitor, single point]"
4,COc1cccc(-c2nc(CS(=O)CC(=O)NCCc3ccc(C)cc3)c(C)o2)c1 (configuration not stated),inactive
5,CC(C)=CCN1CCN(Cc2cc(C(C)C)n[nH]2)CC1CCO (configuration not stated),"inconclusive: 18.5 µM [inhibitor, single point]"
6,Cc1cc(C)n2nc(SCc3c(F)cccc3Cl)nc2n1,"inconclusive: 18.5 µM [inhibitor, single point]"
7,O=C(CCCOc1ccc(Cl)cc1)Nc1ccc(N2CCOCC2)cc1,inactive
8,CN(CCCNC(=O)Cn1cc2c(n1)CCCC2)C1CCCCC1,"inconclusive: 2.94 µM [inhibitor, partial curve, poor fit]"
9,Cc1sc(=NC(=O)c2ccco2)n(C)c1-c1ccccc1,inactive
10,Cc1ccc(N(C(=O)c2ccc3c(c2)OCO3)C2C=CS(=O)(=O)C2)cc1C (configuration not stated),inactive
11,C[C@H](NS(=O)(=O)c1ccc(Cl)c(Cl)c1)C(=O)OCc1cc(=O)n2cc(Br)ccc2n1,inactive
12,Nc1nc(F)nc2c1ncn2[C@@H]1O[C@H](CO)[C@@H](O)[C@H]1O,"inconclusive: 6.01 µM [inhibitor, partial curve]"
13,CSCc1ccc(C(=O)NC2CC(C)(C)Cc3c2cnn3-c2ccc(F)cc2)o1 (configuration not stated),"inconclusive: 9.28 µM [inhibitor, partial curve, poor fit]"
14,Cn1c(=O)n(C)c2cc(S(=O)(=O)O)ccc21,"inconclusive: 18.5 µM [inhibitor, partial curve, poor fit]"
15,O=C(CSc1nc(-c2ccco2)cc(C(F)(F)F)n1)N1CCN(c2ccc(Cl)cc2)CC1,"inconclusive: 3.29 µM [inhibitor, full curve]"
16,COC(=O)C(Cc1ccccc1)NC(=O)CCNC(=O)c1ccco1 (configuration not stated),inactive
17,O=C(C[n+]1cc(Br)cc2ccccc21)c1ccccc1,inactive
18,Cc1ccc(C(CC(N)=O)c2ccco2)cc1 (configuration not stated),"inconclusive: 5.86 µM [inhibitor, partial curve]"
19,CCn1c(Cc2ccccc2)nnc1SCC(=O)c1cccc([N+](=O)[O-])c1,"inconclusive: 6.57 µM [inhibitor, single point]"
20,O=C(/C=C/c1ccc(F)cc1)c1ccc(N2CCOCC2)cc1,inactive
21,CCOC(=O)c1sc2nc(CSc3ccccc3)[nH]c(=O)c2c1C,"inconclusive: 18.5 µM [inhibitor, single point]"
22,OCCC1CN(C/C=C/c2ccco2)CCN1Cc1ccccc1 (configuration not stated),"inconclusive: 18.5 µM [inhibitor, single point]"
23,O=C(Nc1ccccc1)O/N=C1\CCCCC1c1ccc([N+](=O)[O-])cc1[N+](=O)[O-] (configuration not stated),"inconclusive: 18.5 µM [inhibitor, single point]"
24,Nc1c(Cl)cc(C2=NCCn3nc4ccccc4c32)cc1Cl,"inconclusive: 18.5 µM [inhibitor, single point]"

row,SMILES,Potency
1,Cc1ccc(CN(C)C(=O)c2cccc(S(=O)(=O)N3CCc4ccccc4C3)c2)o1,inactive
2,CC(C)=Cc1c(O)nc2ccccn2c1=O,"inconclusive: 18.5 µM [inhibitor, single point]"
3,C=CCNC(=O)CN1C(=O)c2cccc3cccc1c23,inactive
4,Cc1noc(C)c1COC(=O)c1ccccc1NC(=O)c1ccco1,"inconclusive: 18.5 µM [inhibitor, single point]"
5,CCc1ccc(OCCCC(=O)Nc2nccs2)cc1,inactive
6,C=C(C)C(=O)N1CC2(CC(c3cccc(NC(=O)CCCCC)c3)=NO2)C[C@H]1C(N)=O (some centres not stated),inactive
7,CCOC(=O)CCc1nc2ccccc2[nH]c1=O,inactive
8,CC(=O)N1CCN(Cc2nc3cc(NC(=O)c4ccc(Cl)cc4)ccc3n2C)CC1,inactive
9,CN1CCN(C(CNS(=O)(=O)c2ccc(Br)cc2)c2ccc3c(c2)OCO3)CC1 (configuration not stated),"inconclusive: 18.5 µM [inhibitor, single point]"
10,CC1=CC2=NC(=O)CC(C)(C(=O)N(CC(=O)NC(C)C)C3CCCC3)N2C=C1 (configuration not stated),inactive
11,CC(C)CC(c1nnnn1Cc1cccs1)N1CCN(c2nc3ccccc3s2)CC1 (configuration not stated),inactive
12,OCCCCO,"inconclusive: 16.5 µM [inhibitor, single point]"
13,CCOC(=O)C1=C[C@]2(CC)CCCN3CCc4c(n1c1ccccc41)[C@@H]32,active: 6.75 µM and active: 3.7 µM
14,Nc1nc(-c2ccccc2)[nH]c(=O)c1N,inactive
15,COc1ccccc1CCN1CCCC(CN(C)C(=O)CCC(=O)N(C)C)C1 (configuration not stated),"inconclusive: 13.1 µM [inhibitor, single point]"
16,NS(=O)(=O)OCc1ccc(C(F)(F)F)cc1,inactive
17,Cn1nc(C(=O)Nc2sccc2C(N)=O)ccc1=O,"inconclusive: 18.5 µM [inhibitor, single point]"
18,O=C(Cc1ccccc1)NC(=S)Nc1cccc(C(F)(F)F)c1,"inconclusive: 18.5 µM [inhibitor, single point]"
19,O=C(COc1ccc(Br)cc1)N1CCN(Cc2c[nH]c3ccccc23)CC1,"inconclusive: 9.28 µM [inhibitor, partial curve, poor fit]"
20,Cc1cc(NC(=O)CCCSc2nc(-c3ccco3)cc(C(F)(F)F)n2)n(-c2ccccc2)n1,inactive
21,O=C(CCC1COc2ccccc2O1)Nc1cccnc1 (configuration not stated),"inconclusive: 3.7 µM [inhibitor, partial curve, poor fit]"
22,CCN(c1ccccc1)S(=O)(=O)c1cc(NC(=O)Nc2ccccc2C#N)ccc1Cl,"inconclusive: 11.7 µM [inhibitor, single point]"
23,CCc1ccc(N2C(=O)CC(N3CCN(c4ccccn4)CC3)C2=O)cc1 (configuration not stated),inactive
24,CCc1nccn1S(=O)(=O)c1cc(OC)c(Cl)cc1OC,"inconclusive: 13.1 µM [inhibitor, partial curve]"

row,SMILES,Potency
1,Cc1nc(C)c(C(=O)NCCC(c2ccccc2)c2ccccc2)o1,"inconclusive: 4.15 µM [inhibitor, single point]"
2,CCCC(C)NC(=O)CN1C(=O)c2cccc3cccc1c23 (configuration not stated),inactive
3,COC(=O)[C@H](CC(C)C)NC(=O)NCCCc1ccccc1,"inconclusive: 11.7 µM [inhibitor, single point]"
4,CCc1nn(-c2cc(Cl)ccc2OC)c2c1C(=O)CCC2,"inconclusive: 18.5 µM [inhibitor, single point]"
5,CCOP(=O)(OCC)c1nc(Cc2ccccc2)oc1NCc1ccccc1,active: 10.4 µM
6,Cc1cnc(NC(=O)c2ccc3c(c2)C(=O)N(Cc2ccco2)C3=O)s1,"inconclusive: 10.4 µM [inhibitor, single point]"
7,CN(CC(=O)N1CCCCC1)S(=O)(=O)c1ccc(Cl)cc1,"inconclusive: 16.5 µM [inhibitor, single point]"
8,Cc1ccc(NC(=O)CN2CCOCC2)c(Br)c1,"inconclusive: 11.7 µM [inhibitor, single point]"
9,Cc1ccc(OCC(=O)N/N=C\c2ccc(C)o2)c([N+](=O)[O-])c1,active: 5.86 µM
10,Cc1nc(C)c(CCNC(=O)c2ccccc2Br)s1,inactive
11,Cn1nc(-c2ccc(C(=O)N3CCN(Cc4ccccc4)CC3)cc2)c2ccccc2c1=O,active: 13.1 µM
12,CCn1c(CSc2nc(C)cc(C)n2)nnc1SCC(=O)N1CCCc2ccccc21,"inconclusive: 5.22 µM [inhibitor, partial curve, poor fit]"
13,Cc1ccc(C(C[N+](=O)[O-])c2c(C)cc3ccccn23)cc1 (configuration not stated),"inconclusive: 18.5 µM [inhibitor, single point]"
14,COc1ccc(-c2nc3ccccc3c(=O)n2-c2cccnc2)cc1,"inconclusive: 0.0026 µM [inhibitor, full curve, poor fit]"
15,O=C(C1CCN(Cc2ccccc2O)CC1)N1CCN(Cc2ccc3c(c2)OCO3)CC1,"inconclusive: 18.5 µM [inhibitor, single point]"
16,COc1cccc2sc(N(CCCN(C)C)C(=O)c3sc4ccccc4c3Cl)nc12,"inconclusive: 13.1 µM [inhibitor, partial curve, poor fit]"
17,CCCCc1c(O)nc2ccccn2c1=O,active: 11.7 µM
18,CC(Sc1nnc(C2CC2)n1C1CC1)C(=O)Nc1cccc(S(=O)(=O)N(C)C)c1 (configuration not stated),"inconclusive: 13.1 µM [inhibitor, partial curve, poor fit]"
19,O=C1C=C(c2cccc3c2Oc2ccccc2S3)C[C@@H](c2ccc(Cl)cc2)C1,"inconclusive: 2.94 µM [inhibitor, single point]"
20,Cc1cc(C(=O)COc2ccccc2Cl)c(C)n1C1CC1,"inconclusive: 14.7 µM [inhibitor, single point]"
21,O=C(OCC(=O)N1CCN(C(=O)c2ccco2)CC1)c1ccccc1C(=O)c1ccc(Cl)cc1,"inconclusive: 0.329 µM [inhibitor, partial curve, poor fit]"
22,COc1cccc(NC(=O)Nc2cc(C(=O)O)ccc2N2CC3CC(C2)c2cccc(=O)n2C3)c1 (configuration not stated),active: 1.47 µM
23,Cc1nc(=S)c2c([nH]1)-c1ccccc1CC21CCCCC1,"inconclusive: 8.28 µM [inhibitor, partial curve, poor fit]"
24,COc1ccccc1/C=C/C=C1\Oc2c(ccc(O)c2CN(C)C)C1=O,"inconclusive: 1.17 µM [inhibitor, full curve, poor fit]"

# From PubChem BioAssay AID504834 (National Center for Advancing Translational Sciences (NCATS), 2011)
